Data on two substances can be found in publication PMC4263166.

Protein sequences, listed by entry. Tags and fused reporters are not part of them. Lines headed by an entry give the natural chain unless they say otherwise; changes in a name come on top.
UniProt Q13588: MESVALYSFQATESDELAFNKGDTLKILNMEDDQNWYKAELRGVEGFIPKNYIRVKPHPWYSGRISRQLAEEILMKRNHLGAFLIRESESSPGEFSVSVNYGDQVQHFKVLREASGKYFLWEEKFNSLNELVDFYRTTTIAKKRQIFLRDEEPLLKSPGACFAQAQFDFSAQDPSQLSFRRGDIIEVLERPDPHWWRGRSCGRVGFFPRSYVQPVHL
UniProt P62993: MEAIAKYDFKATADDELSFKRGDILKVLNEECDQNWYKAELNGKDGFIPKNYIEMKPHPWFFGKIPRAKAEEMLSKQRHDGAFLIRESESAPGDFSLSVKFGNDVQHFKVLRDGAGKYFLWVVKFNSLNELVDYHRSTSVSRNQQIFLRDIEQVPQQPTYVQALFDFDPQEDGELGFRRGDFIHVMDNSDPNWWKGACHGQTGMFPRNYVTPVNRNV
UniProt Q8WV28: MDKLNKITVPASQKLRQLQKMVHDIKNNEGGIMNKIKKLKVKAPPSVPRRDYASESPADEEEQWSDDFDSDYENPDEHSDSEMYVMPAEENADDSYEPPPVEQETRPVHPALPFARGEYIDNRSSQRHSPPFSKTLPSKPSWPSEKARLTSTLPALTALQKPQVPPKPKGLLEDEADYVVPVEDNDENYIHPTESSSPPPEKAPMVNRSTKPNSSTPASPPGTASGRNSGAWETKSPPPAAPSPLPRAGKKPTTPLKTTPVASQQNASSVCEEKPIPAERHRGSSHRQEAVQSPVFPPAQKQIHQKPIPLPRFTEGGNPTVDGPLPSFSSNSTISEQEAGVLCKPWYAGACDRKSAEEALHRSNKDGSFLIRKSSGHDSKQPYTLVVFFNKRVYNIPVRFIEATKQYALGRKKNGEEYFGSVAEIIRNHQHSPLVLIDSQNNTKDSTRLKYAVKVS
UniProt Q06187: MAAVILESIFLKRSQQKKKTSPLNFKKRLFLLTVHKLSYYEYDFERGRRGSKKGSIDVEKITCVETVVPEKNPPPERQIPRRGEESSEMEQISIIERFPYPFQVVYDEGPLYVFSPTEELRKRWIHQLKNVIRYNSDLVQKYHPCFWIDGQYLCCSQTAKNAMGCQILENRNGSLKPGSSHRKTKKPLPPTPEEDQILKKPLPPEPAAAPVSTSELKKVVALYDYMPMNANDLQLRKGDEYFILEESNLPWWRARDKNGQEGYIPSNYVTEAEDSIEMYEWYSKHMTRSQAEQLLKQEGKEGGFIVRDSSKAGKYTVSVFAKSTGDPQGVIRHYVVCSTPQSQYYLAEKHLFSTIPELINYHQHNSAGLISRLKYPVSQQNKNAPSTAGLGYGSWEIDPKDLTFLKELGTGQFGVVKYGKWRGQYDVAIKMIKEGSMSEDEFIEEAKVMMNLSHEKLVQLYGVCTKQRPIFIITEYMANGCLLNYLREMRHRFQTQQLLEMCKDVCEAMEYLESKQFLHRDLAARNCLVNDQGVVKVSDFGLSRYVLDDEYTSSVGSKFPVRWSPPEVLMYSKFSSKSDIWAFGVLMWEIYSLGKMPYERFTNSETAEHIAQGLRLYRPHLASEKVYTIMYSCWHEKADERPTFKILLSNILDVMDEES

These are yes or no findings as the source states them, for the method shown. In cells and extracts the contact can be indirect. Binding can be weak; no strength is given.

In test [1] the target is GST-coupled N-terminal SH3 domain of GRAP (UniProt Q13588). Nature of the test: pull-down; ~20 μg GST-coupled N-terminal SH3 domains on glutathione-sepharose beads; NP40 lysates of DG75 B cells stimulated via their BCR for 3 min; immunoblot; only the target purified. Background: In western blotting, separated proteins are transferred to a membrane and probed.
Test [2] has as its target GST-coupled N-terminal SH3 domain of Grb2 (UniProt P62993). The description is as above.

For the substance “adaptor protein SLP65 (BLNK) (from UniProt Q8WV28 1-456)”, the binding entry in test [1] is on record as “binds weakly”.
Regarding “Bruton’s tyrosine kinase (Btk) (from UniProt Q06187 1-659) (enzyme)”, the values for the binding result in test [2] and in test [1] were “binds” and “no binding”, respectively.
